PubChem BioAssay AID504804, Drosophila RNAi Screening Center – 2011

Assay: 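Knock-downs shielding fly cells from apoptosis caused by DNA damage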 (primary screen)
Cells: Drosophila Kc cells
Reagent: long dsRNA against Drosophila genes, 0.5 µg dsRNA per well
Timing: 96 h (48 h knock-down, then 48 h drug)
Treatment: doxorubicin 5 µg/ml for 48 h, added 48 h after dsRNA
Read-out: 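Luminescent ATP counts per replicate, not normalised, reflecting viable cells after 48 h dsRNA knock-down followed by 48 h of 5 µg/ml doxorubicin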
Reading the numbers: raw ATP luminescence: higher = more viable cells, protection from doxorubicin
Call rule: 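z-score of 2 or more over plate mean in both duplicates, retained only when retests and separate dsRNAs confirm the protection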
In all, the deposit lists about 19,000 reagents; below is a random part of those that have a named target and a result. Of all reagents, 47 (0.25%) were called active. 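Signals are raw, not normalised; exact z-scores behind calls not deposited; actives needed confirmation, so some wells reaching 2 SD are inactive.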 A plus sign joins genes that one reagent is predicted to hit. No sequences are given here.

CG12321 [DRSC14499] scored raw ATP luminescence, replicate 1 = 34850; raw ATP luminescence, replicate 2 = 38297; inactive.
dally [DRSC08954] gave raw ATP luminescence, replicate 1 = 1.32e5; raw ATP luminescence, replicate 2 = 1.69e5; inactive.
Knock-down of dally [DRSC11338] came out at: raw ATP luminescence, replicate 1 = 31113; raw ATP luminescence, replicate 2 = 30927; inactive.
Cad86C [DRSC15587] scored raw ATP luminescence, replicate 1 = 64620; raw ATP luminescence, replicate 2 = 51347; inactive.
Cad86C [DRSC15611] scored raw ATP luminescence, replicate 1 = 60043; raw ATP luminescence, replicate 2 = 50860; inactive.
With knock-down of CG15530 [DRSC15067], the record shows raw ATP luminescence, replicate 1 = 36270; raw ATP luminescence, replicate 2 = 41370; inactive.
With knock-down of TFAM [DRSC15552], the screen gave raw ATP luminescence, replicate 1 = 60770; raw ATP luminescence, replicate 2 = 62017; inactive.
CG3434 [DRSC10365] scored raw ATP luminescence, replicate 1 = 45137; raw ATP luminescence, replicate 2 = 33150; inactive.
Pvr [DRSC03080] gave raw ATP luminescence, replicate 1 = 43527; raw ATP luminescence, replicate 2 = 38033; inactive.
After knock-down of PIG-T [DRSC17774] the results were raw ATP luminescence, replicate 1 = 56960; raw ATP luminescence, replicate 2 = 36500; inactive.
Against Cht8 [DRSC04546], the values are raw ATP luminescence, replicate 1 = 58097; raw ATP luminescence, replicate 2 = 37173; inactive.
For CG14187 [DRSC10186], the values are raw ATP luminescence, replicate 1 = 67863; raw ATP luminescence, replicate 2 = 57377; inactive.
Against CG12699 [DRSC06162] the deposit lists raw ATP luminescence, replicate 1 = 66917; raw ATP luminescence, replicate 2 = 75343; inactive.
Knock-down of Dhfr [DRSC16646] came out at: raw ATP luminescence, replicate 1 = 1.13e5; raw ATP luminescence, replicate 2 = 1.15e5; inactive.
After knock-down of CG5342 [DRSC15776], the record shows raw ATP luminescence, replicate 1 = 50200; raw ATP luminescence, replicate 2 = 50603; inactive.
With knock-down of CR15280 [DRSC01953], the screen gave raw ATP luminescence, replicate 1 = 67007; raw ATP luminescence, replicate 2 = 60980; inactive.
With knock-down of CG10702 [DRSC02097] the results were raw ATP luminescence, replicate 1 = 1.01e5; raw ATP luminescence, replicate 2 = 82507; inactive.
Against CG3502 + CG9863 [DRSC04578] the deposit lists raw ATP luminescence, replicate 1 = 43573; raw ATP luminescence, replicate 2 = 48740; inactive.
For rdo [DRSC02452], the entry reads raw ATP luminescence, replicate 1 = 79010; raw ATP luminescence, replicate 2 = 53907; inactive.
For nAChRbeta3 [DRSC00325], the entry reads raw ATP luminescence, replicate 1 = 1.03e5; raw ATP luminescence, replicate 2 = 66300; inactive.
Silencing of CG8136 [DRSC16385] gave: raw ATP luminescence, replicate 1 = 54437; raw ATP luminescence, replicate 2 = 56757; inactive.

Copied from the list:
Result of CG14187 [DRSC10186] under “raw ATP luminescence, replicate 1”: 67863
For “Call”, nAChRbeta3 [DRSC00325] is entered as inactive
Entry of dally [DRSC11338] in “Call”: inactive
CG8136 [DRSC16385], Call: inactive

The listing continues:
Cyp6a8 [DRSC07384] gave raw ATP luminescence, replicate 1 = 76407; raw ATP luminescence, replicate 2 = 61770; inactive.
Knock-down of CG4537 [DRSC02756] came out at: raw ATP luminescence, replicate 1 = 22973; raw ATP luminescence, replicate 2 = 49360; inactive.
After knock-down of CR18166 [DRSC17260], the record shows raw ATP luminescence, replicate 1 = 2.10e5; raw ATP luminescence, replicate 2 = 2.12e5; inactive.
Silencing of CR18166 [DRSC18147] resulted in: raw ATP luminescence, replicate 1 = 44870; raw ATP luminescence, replicate 2 = 54760; inactive.
Against tbrd-3 [DRSC04295] the deposit lists raw ATP luminescence, replicate 1 = 56930; raw ATP luminescence, replicate 2 = 55273; inactive.
frm [DRSC09753] gave raw ATP luminescence, replicate 1 = 40483; raw ATP luminescence, replicate 2 = 46637; inactive.
Silencing of CG4168 [DRSC01446] resulted in: raw ATP luminescence, replicate 1 = 2.72e5; raw ATP luminescence, replicate 2 = 2.50e5; inactive.
CG4168 [DRSC01447] scored raw ATP luminescence, replicate 1 = 2.67e5; raw ATP luminescence, replicate 2 = 2.21e5; inactive.
CG4168 [DRSC01933] scored raw ATP luminescence, replicate 1 = 93307; raw ATP luminescence, replicate 2 = 67553; inactive.
After knock-down of Apc [DRSC14114], the record shows raw ATP luminescence, replicate 1 = 65540; raw ATP luminescence, replicate 2 = 34990; inactive.
Silencing of CG15035 [DRSC17967] resulted in: raw ATP luminescence, replicate 1 = 46620; raw ATP luminescence, replicate 2 = 45350; inactive.
Depletion of CG7290 [DRSC10800] resulted in: raw ATP luminescence, replicate 1 = 55253; raw ATP luminescence, replicate 2 = 52920; inactive.
CkIIalpha-i3 [DRSC08651] gave raw ATP luminescence, replicate 1 = 80210; raw ATP luminescence, replicate 2 = 87017; inactive.
Silencing of Kots [DRSC16581] gave: raw ATP luminescence, replicate 1 = 77873; raw ATP luminescence, replicate 2 = 23600; inactive.
Against ARY (retired record) [DRSC20867], the entry reads raw ATP luminescence, replicate 1 = 2.39e5; raw ATP luminescence, replicate 2 = 2.24e5; inactive.
